# No constants are given. Whether binding was seen depends on the method and setting. Some results given as binding are weak or reduced against the parent protein; the word gives no strength.
# Chains of the proteins cited; added tags and fusions are not shown. Lines headed by an entry give the natural chain unless they say otherwise; changes in a name come on top.
# UniProt Q9UM07: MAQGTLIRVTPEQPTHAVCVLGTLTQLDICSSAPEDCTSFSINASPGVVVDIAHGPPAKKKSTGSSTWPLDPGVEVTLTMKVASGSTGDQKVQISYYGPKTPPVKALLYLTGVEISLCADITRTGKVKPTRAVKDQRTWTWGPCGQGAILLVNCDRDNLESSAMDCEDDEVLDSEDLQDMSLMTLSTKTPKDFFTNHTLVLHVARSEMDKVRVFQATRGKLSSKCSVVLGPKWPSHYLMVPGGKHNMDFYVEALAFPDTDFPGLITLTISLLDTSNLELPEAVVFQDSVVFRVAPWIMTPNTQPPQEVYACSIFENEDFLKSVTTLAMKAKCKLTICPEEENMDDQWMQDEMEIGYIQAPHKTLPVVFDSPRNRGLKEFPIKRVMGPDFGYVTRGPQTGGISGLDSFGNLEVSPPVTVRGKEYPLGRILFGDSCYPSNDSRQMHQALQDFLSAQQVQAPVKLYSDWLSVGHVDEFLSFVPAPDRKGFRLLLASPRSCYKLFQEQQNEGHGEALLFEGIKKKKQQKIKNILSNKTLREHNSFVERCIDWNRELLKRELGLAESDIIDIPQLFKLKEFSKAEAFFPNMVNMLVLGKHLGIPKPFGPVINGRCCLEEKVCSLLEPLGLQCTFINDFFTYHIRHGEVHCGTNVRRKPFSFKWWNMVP
# T1: BSA-modified peptide antigen … (SEQ ID NO: 1) (human)
# T1 sequence (peptide, BSA-modified (carrier conjugate) in the ELISA; KLH-modified for immunisation): FFTYHIRHGEVHC
# Legend:
# [1] = target: T1, BSA-modified peptide antigen … (SEQ ID NO: 1) (human); assay: ELISA, culture supernatant of CHO cells on immobilised BSA-modified peptide
# [2] = target: human PAD4 (Peptidylarginine deiminase 4) (human) (UniProt Q9UM07); assay: ELISA, culture supernatant of CHO cells on immobilised full-length recombinant human PAD4
# [3] = target: human PAD4 (Peptidylarginine deiminase 4) (human) (UniProt Q9UM07); assay: inferred from inhibition of Ca2+-preactivated human PAD4 (Protocol 2, citrullination of BAEE)
binding [1],binding [2],binding [3],Binder
binds,binds,binds,"P1 (antibody, V domains shown, Chicken variable regions recombined into mouse chimeric antibody (IgG1) expression vectors; also called anti-PAD4 antibody P1; P1 etc) VH: AVTLDESGGGLQTPGGGLSLICKASGFHMRSYAMNWVRQAPGKGLEFVAGIDNSGRYRNYGAAVKGRATISRDNGQSTVRLQLNNLRAEDTGIYYCAKNFDVGGDGCDWSSGCIDAWGHGTEVIVS VL: ASTQPSSVSANPGETVKITCSGGSSTYYGWYQQKSPGSAPVTVIYQNTKRPSGLSSRFSGSKSGSTATLTITGVQAEDEAVYFCGGYDTRTYAGIFGAGTTLTVL"
binds,binds,binds,"P4 (antibody, V domains shown, Chicken variable regions recombined into mouse chimeric antibody (IgG1) expression vectors; also called anti-PAD4 antibody P4; P1 etc) VH: AVTLDESGGGLQTPGGGLSLICKASGFSMRSYAMNWVRQAPGKGLEFVAGIDNTGRYTGYGSAVKGRATISRDNGQSTVRLQLNNLRAEDTGTYYCAKNVDVAGSGCDWSSGCIDAWGHGTEVTVS VL: ASTQPSSVSANPGETVKITCSGGSSTYYGWYQQKSPGSAPVTVIYQNTKRPSGLSSRFSGSKSGSTATLTITGVQAEDEAVYFCGGYDTRTYAGIFGAGTTLTVL"
